Laboratory results reported in PMC10323252.

Chains of the proteins cited; added tags and fusions are not shown.
UniProt P62491: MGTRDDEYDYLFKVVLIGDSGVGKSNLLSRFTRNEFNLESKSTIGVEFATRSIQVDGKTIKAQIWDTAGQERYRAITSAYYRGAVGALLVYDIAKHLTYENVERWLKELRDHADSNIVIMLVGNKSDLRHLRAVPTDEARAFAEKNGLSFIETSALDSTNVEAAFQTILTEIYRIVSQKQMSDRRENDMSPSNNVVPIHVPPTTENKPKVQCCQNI

T1: mycBirA*–Rab25 (UniProt P57735)
T1 sequence: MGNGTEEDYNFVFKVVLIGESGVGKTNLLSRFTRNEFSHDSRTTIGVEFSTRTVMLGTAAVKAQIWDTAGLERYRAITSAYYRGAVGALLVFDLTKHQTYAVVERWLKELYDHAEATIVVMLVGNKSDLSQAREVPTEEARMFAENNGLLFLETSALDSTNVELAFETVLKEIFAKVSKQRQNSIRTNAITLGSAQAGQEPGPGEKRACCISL


These binders were tested against mycBirA*–Rab11a (UniProt P62491) (assay: proximity labelling; BioID: A2780 cells stably expressing mycBirA*-Rab baits (mycBirA* alone as control), 1 uM biotin for 16 h; lysis in 0.4% SDS, 500 mM NaCl buffer; streptavidin microspheres; LC-MS/MS with label-free quantification, four replicates; high-confidence list by SAINTexpress (BFDR<=0.05), longlist by >2-fold enrichment; biotin-modified peptides also scored).

Binder	binding
RABEP1 (protein, UniProt Q15276 1-862) MAQPGPASQPDVSLQQRVAELEKINAEFLRAQQQLEQEFNQKRAKFKELYLAKEEDLKRQNAVLQAAQDDLGHLRTQLWEAQAEMENIKAIATVSENTKQEAIDEVKRQWREEVASLQAVMKETVRDYEHQFHLRLEQERTQWAQYRESAEREIADLRRRLSEGQEEENLENEMKKAQEDAEKLRSVVMPMEKEIAALKDKLTEAEDKIKELEASKVKELNHYLEAEKSCRTDLEMYVAVLNTQKSVLQEDAEKLRKELHEVCHLLEQERQQHNQLKHTWQKANDQFLESQRLLMRDMQRMEIVLTSEQLRQVEELKKKDQEDDEQQRLNKRKDHKKADVEEEIKIPVVCALTQEESSAQLSNEEEHLDSTRGSVHSLDAGLLLPSGDPFSKSDNDMFKDGLRRAQSTDSLGTSGSLQSKALGYNYKAKSAGNLDESDFGPLVGADSVSENFDTASLGSLQMPSGFMLTKDQERAIKAMTPEQEETASLLSSVTQGMESAYVSPSGYRLVSETEWNLLQKEVHNAGNKLGRRCDMCSNYEKQLQGIQIQEAETRDQVKKLQLMLRQANDQLEKTMKDKQELEDFIKQSSEDSSHQISALVLRAQASEILLEELQQGLSQAKRDVQEQMAVLMQSREQVSEELVRLQKDNDSLQGKHSLHVSLQQAEDFILPDTTEALRELVLKYREDIINVRTAADHVEEKLKAEILFLKEQIQAEQCLKENLEETLQLEIENCKEEIASISSLKAELERIKVEKGQLESTLREKSQQLESLQEIKISLEEQLKKETAAKATVEQLMFEEKNKAQRLQTELDVSEQVQRDFVKLSQTLQVQLERIRQADSLERIRAILNDTKLTDINQLPET	binds
ARHGAP18 (protein, UniProt Q8N392 1-663) MSWLSSSQGVVLTAYHPSGKDQTVGNSHAKAGEEATSSRRYGQYTMNQESTTIKVMEKPPFDRSISQDSLDELSMEDYWIELENIKKSSENSQEDQEVVVVKEPDEGELEEEWLKEAGLSNLFGESAGDPQESIVFLSTLTRTQAAAVQKRVETVSQTLRKKNKQYQIPDVRDIFAQQRESKETAPGGTESQSLRTNENKYQGRDDEASNLVGEEKLIPPEETPAPETDINLEVSFAEQALNQKESSKEKIQKSKGDDATLPSFRLPKDKTGTTRIGDLAPQDMKKVCHLALIELTALYDVLGIELKQQKAVKIKTKDSGLFCVPLTALLEQDQRKVPGMRIPLIFQKLISRIEERGLETEGLLRIPGAAIRIKNLCQELEAKFYEGTFNWESVKQHDAASLLKLFIRELPQPLLSVEYLKAFQAVQNLPTKKQQLQALNLLVILLPDANRDTLKALLEFLQRVIDNKEKNKMTVMNVAMVMAPNLFMCHALGLKSSEQREFVMAAGTANTMHLLIKYQKLLWTIPKFIVNQVRKQNTENHKKDKRAMKKLLKKMAYDREKYEKQDKSTNDADVPQGVIRVQAPHLSKVSMAIQLTEELKASDVLARFLSQESGVAQTLKKGEVFLYEIGGNIGERCLDDDTYMKDLYQLNPNAEWVIKSKPL	binds
VPS45 (protein, UniProt Q9NRW7 1-570) MNVVFAVKQYISKMIEDSGPGMKVLLMDKETTGIVSMVYTQSEILQKEVYLFERIDSQNREIMKHLKAICFLRPTKENVDYIIQELRRPKYTIYFIYFSNVISKSDVKSLAEADEQEVVAEVQEFYGDYIAVNPHLFSLNILGCCQGRNWDPAQLSRTTQGLTALLLSLKKCPMIRYQLSSEAAKRLAECVKQVITKEYELFEFRRTEVPPLLLILDRCDDAITPLLNQWTYQAMVHELLGINNNRIDLSRVPGISKDLREVVLSAENDEFYANNMYLNFAEIGSNIKNLMEDFQKKKPKEQQKLESIADMKAFVENYPQFKKMSGTVSKHVTVVGELSRLVSERNLLEVSEVEQELACQNDHSSALQNIKRLLQNPKVTEFDAARLVMLYALHYERHSSNSLPGLMMDLRNKGVSEKYRKLVSAVVEYGGKRVRGSDLFSPKDAVAITKQFLKGLKGVENVYTQHQPFLHETLDHLIKGRLKENLYPYLGPSTLRDRPQDIIVFVIGGATYEEALTVYNLNRTTPGVRIVLGGTTVHNTKSFLEEVLASGLHSRSKESSQVTSRSASRR	binds
VPS33B (protein, UniProt Q9H267 1-617) MAFPHRPDAPELPDFSMLKRLARDQLIYLLEQLPGKKDLFIEADLMSPLDRIANVSILKQHEVDKLYKVENKPALSSNEQLCFLVRPRIKNMRYIASLVNADKLAGRTRKYKVIFSPQKFYACEMVLEEEGIYGDVSCDEWAFSLLPLDVDLLSMELPEFFRDYFLEGDQRWINTVAQALHLLSTLYGPFPNCYGIGRCAKMAYELWRNLEEEEDGETKGRRPEIGHIFLLDRDVDFVTALCSQVVYEGLVDDTFRIKCGSVDFGPEVTSSDKSLKVLLNAEDKVFNEIRNEHFSNVFGFLSQKARNLQAQYDRRRGMDIKQMKNFVSQELKGLKQEHRLLSLHIGACESIMKKKTKQDFQELIKTEHALLEGFNIRESTSYIEEHIDRQVSPIESLRLMCLLSITENGLIPKDYRSLKTQYLQSYGPEHLLTFSNLRRAGLLTEQAPGDTLTAVESKVSKLVTDKAAGKITDAFSSLAKRSNFRAISKKLNLIPRVDGEYDLKVPRDMAYVFGGAYVPLSCRIIEQVLERRSWQGLDEVVRLLNCSDFAFTDMTKEDKASSESLRLILVVFLGGCTFSEISALRFLGREKGYRFIFLTTAVTNSARLMEAMSEVKA	binds

What follows are binders tested against T1, mycBirA*–Rab25 in the same assay as above.

Binder	binding
SMCR8 (protein, UniProt Q8TEV9 1-937) MISAPDVVAFTKEEEYEEEPYNEPALPEEYSVPLFPFASQGANPWSKLSGAKFSRDFILISEFSEQVGPQPLLTIPNDTKVFGTFDLNYFSLRIMSVDYQASFVGHPPGSAYPKLNFVEDSKVVLGDSKEGAFAYVHHLTLYDLEARGFVRPFCMAYISADQHKIMQQFQELSAEFSRASECLKTGNRKAFAGELEKKLKDLDYTRTVLHTETEIQKKANDKGFYSSQAIEKANELASVEKSIIEHQDLLKQIRSYPHRKLKGHDLCPGEMEHIQDQASQASTTSNPDESADTDLYTCRPAYTPKLIKAKSTKCFDKKLKTLEELCDTEYFTQTLAQLSHIEHMFRGDLCYLLTSQIDRALLKQQHITNFLFEDFVEVDDRMVEKQESIPSKPSQDRPPSSSLEECPIPKVLISVGSYKSSVESVLIKMEQELGDEEYKEVEVTELSSFDPQENLDYLDMDMKGSISSGESIEVLGTEKSTSVLSKSDSQASLTVPLSPQVVRSKAVSHRTISEDSIEVLSTCPSEALIPDDFKASYPSAINEEESYPDGNEGAIRFQASISPPELGETEEGSIENTPSQIDSSCCIGKESDGQLVLPSTPAHTHSDEDGVVSSPPQRHRQKDQGFRVDFSVENANPSSRDNSCEGFPAYELDPSHLLASRDISKTSLDNYSDTTSYVSSVASTSSDRIPSAYPAGLSSDRHKKRAGQNALKFIRQYPFAHPAIYSLLSGRTLVVLGEDEAIVRKLVTALAIFVPSYGCYAKPVKHWASSPLHIMDFQKWKLIGLQRVASPAGAGTLHALSRYSRYTSILDLDNKTLRCPLYRGTLVPRLADHRTQIKRGSTYYLHVQSMLTQLCSKAFLYTFCHHLHLPTHDKETEELVASRQMSFLKLTLGLVNEDVRVVQYLAELLKLHYMQESPGTSHPMLRFDYVPSFLYKI	binds
TBC1D15 (protein, UniProt Q8TC07 1-691) MAAAGVVSGKIIYEQEGVYIHSSCGKTNDQDGLISGILRVLEKDAEVIVDWRPLDDALDSSSILYARKDSSSVVEWTQAPKERGHRGSEHLNSYEAEWDMVNTVSFKRKPHTNGDAPSHRNGKSKWSFLFSLTDLKSIKQNKEGMGWSYLVFCLKDDVVLPALHFHQGDSKLLIESLEKYVVLCESPQDKRTLLVNCQNKSLSQSFENLLDEPAYGLIQAGLLDRRKLLWAIHHWKKIKKDPYTATMIGFSKVTNYIFDSLRGSDPSTHQRPPSEMADFLSDAIPGLKINQQEEPGFEVITRIDLGERPVVQRREPVSLEEWTKNIDSEGRILNVDNMKQMIFRGGLSHALRKQAWKFLLGYFPWDSTKEERTQLQKQKTDEYFRMKLQWKSISQEQEKRNSRLRDYRSLIEKDVNRTDRTNKFYEGQDNPGLILLHDILMTYCMYDFDLGYVQGMSDLLSPLLYVMENEVDAFWCFASYMDQMHQNFEEQMQGMKTQLIQLSTLLRLLDSGFCSYLESQDSGYLYFCFRWLLIRFKREFSFLDILRLWEVMWTELPCTNFHLLLCCAILESEKQQIMEKHYGFNEILKHINELSMKIDVEDILCKAEAISLQMVKCKELPQAVCEILGLQGSEVTTPDSDVGEDENVVMTPCPTSAFQSNALPTLSASGARNDSPTQIPVSSDVCRLTPA	binds
ARHGAP12 (protein, UniProt Q8IWW6 1-846) MKMADRSGKIIPGQVYIEVEYDYEYEAKDRKIVIKQGERYILVKKTNDDWWQVKPDENSKAFYVPAQYVKEVTRKALMPPVKQVAGLPNNSTKIMQSLHLQRSTENVNKLPELSSFGKPSSSVQGTGLIRDANQNFGPSYNQGQTVNLSLDLTHNNGKFNNDSHSPKVSSQNRTRSFGHFPGPEFLDVEKTSFSQEQSCDSAGEGSERIHQDSESGDELSSSSTEQIRATTPPNQGRPDSPVYANLQELKISQSALPPLPGSPAIQINGEWETHKDSSGRCYYYNRGTQERTWKPPRWTRDASISKGDFQNPGDQELLSSEENYYSTSYSQSDSQCGSPPRGWSEELDERGHTLYTSDYTNEKWLKHVDDQGRQYYYSADGSRSEWELPKYNASSQQQREIIKSRSLDRRLQEPIVLTKWRHSTIVLDTNDKESPTASKPCFPENESSPSSPKHQDTASSPKDQEKYGLLNVTKIAENGKKVRKNWLSSWAVLQGSSLLFTKTQGSSTSWFGSNQSKPEFTVDLKGATIEMASKDKSSKKNVFELKTRQGTELLIQSDNDTVINDWFKVLSSTINNQAVETDEGIEEEIPDSPGIEKHDKEKEQKDPKKLRSFKVSSIDSSEQKKTKKNLKKFLTRRPTLQAVREKGYIKDQVFGSNLANLCQRENGTVPKFVKLCIEHVEEHGLDIDGIYRVSGNLAVIQKLRFAVNHDEKLDLNDSKWEDIHVITGALKMFFRELPEPLFTFNHFNDFVNAIKQEPRQRVAAVKDLIRQLPKPNQDTMQILFRHLRRVIENGEKNRMTYQSIAIVFGPTLLKPEKETGNIAVHTVYQNQIVELILLELSSIFGR	binds

Results are given in words; binding and its absence hold for the method and conditions named. In cells and extracts the contact can be indirect. These calls come from enrichment with a bait or labelling near it, and not all partners need be listed. For some of these results: Where a sequence is shown, tags or fusion partners need not be part of it.
